The list shows a part of the results.
Columns and labels:
Assay in all cases: log2 fold change, soluble protein after heating vs DMSO (PISA); higher = thermal stabilisation; K562 lysate, 10 uM; active = over 0.2 and 3.5 SD of the protein, either way, in both replicates (recomputed)
[1] = compound: CC[C@@H]1C(=O)N(C)c2cnc(Nc3ccc(C(=O)NC4CCN(C)CC4)cc3OC)nc2N1C1CCCC1
In short: (§1)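 K562 pellets were dounce-homogenised in PBS pH 7.4 containing 1 mM MgCl2, and the crude extract, at 1 mg/mL protein, was exposed to 10 μM compound for 30 min. Aliquots were heated for 3 min across 48°C-58°C, pooled, brought to 0.5% NP-40 at 4°C and spun at 21,000xg for 90 min, with the supernatant taken as soluble protein. TMTpro 16plex LC-MS/MS with equalised channel sums quantified that protein. Values are log-two fold changes in thermal stability relative to solvent controls, taken from duplicates.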

Sequences of proteins named here, by UniProt entry; tags and fusion partners are left off. A change or cut given only in a name is not applied to a line headed by its entry.
UniProt P20393: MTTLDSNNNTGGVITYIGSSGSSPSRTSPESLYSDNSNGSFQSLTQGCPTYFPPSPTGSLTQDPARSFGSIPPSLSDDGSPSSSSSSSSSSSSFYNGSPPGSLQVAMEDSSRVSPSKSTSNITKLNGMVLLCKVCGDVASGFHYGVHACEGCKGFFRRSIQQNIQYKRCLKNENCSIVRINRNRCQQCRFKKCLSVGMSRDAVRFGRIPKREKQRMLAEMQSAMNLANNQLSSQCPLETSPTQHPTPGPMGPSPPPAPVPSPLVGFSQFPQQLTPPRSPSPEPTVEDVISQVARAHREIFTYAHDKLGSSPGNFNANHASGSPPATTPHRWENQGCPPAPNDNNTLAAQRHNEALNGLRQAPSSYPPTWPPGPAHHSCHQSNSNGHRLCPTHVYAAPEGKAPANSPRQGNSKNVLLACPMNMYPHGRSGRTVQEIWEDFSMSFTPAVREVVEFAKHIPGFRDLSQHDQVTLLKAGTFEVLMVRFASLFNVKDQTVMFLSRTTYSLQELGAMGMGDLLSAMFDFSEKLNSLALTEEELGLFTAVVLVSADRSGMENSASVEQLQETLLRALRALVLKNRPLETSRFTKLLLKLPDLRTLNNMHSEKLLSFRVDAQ
UniProt O95848: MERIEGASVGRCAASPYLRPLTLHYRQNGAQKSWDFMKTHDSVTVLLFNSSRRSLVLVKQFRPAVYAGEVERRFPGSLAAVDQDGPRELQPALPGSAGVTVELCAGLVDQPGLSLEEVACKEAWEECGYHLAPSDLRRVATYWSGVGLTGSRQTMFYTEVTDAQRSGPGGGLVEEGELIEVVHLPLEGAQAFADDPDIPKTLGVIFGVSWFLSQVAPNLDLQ
UniProt Q96T66: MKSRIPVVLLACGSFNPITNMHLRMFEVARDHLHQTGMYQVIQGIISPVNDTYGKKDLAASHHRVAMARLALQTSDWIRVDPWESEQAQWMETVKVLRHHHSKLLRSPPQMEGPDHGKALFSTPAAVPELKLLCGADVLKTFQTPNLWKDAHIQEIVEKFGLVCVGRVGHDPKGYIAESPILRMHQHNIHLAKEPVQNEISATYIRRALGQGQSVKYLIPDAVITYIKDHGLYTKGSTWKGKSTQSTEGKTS
UniProt P29474: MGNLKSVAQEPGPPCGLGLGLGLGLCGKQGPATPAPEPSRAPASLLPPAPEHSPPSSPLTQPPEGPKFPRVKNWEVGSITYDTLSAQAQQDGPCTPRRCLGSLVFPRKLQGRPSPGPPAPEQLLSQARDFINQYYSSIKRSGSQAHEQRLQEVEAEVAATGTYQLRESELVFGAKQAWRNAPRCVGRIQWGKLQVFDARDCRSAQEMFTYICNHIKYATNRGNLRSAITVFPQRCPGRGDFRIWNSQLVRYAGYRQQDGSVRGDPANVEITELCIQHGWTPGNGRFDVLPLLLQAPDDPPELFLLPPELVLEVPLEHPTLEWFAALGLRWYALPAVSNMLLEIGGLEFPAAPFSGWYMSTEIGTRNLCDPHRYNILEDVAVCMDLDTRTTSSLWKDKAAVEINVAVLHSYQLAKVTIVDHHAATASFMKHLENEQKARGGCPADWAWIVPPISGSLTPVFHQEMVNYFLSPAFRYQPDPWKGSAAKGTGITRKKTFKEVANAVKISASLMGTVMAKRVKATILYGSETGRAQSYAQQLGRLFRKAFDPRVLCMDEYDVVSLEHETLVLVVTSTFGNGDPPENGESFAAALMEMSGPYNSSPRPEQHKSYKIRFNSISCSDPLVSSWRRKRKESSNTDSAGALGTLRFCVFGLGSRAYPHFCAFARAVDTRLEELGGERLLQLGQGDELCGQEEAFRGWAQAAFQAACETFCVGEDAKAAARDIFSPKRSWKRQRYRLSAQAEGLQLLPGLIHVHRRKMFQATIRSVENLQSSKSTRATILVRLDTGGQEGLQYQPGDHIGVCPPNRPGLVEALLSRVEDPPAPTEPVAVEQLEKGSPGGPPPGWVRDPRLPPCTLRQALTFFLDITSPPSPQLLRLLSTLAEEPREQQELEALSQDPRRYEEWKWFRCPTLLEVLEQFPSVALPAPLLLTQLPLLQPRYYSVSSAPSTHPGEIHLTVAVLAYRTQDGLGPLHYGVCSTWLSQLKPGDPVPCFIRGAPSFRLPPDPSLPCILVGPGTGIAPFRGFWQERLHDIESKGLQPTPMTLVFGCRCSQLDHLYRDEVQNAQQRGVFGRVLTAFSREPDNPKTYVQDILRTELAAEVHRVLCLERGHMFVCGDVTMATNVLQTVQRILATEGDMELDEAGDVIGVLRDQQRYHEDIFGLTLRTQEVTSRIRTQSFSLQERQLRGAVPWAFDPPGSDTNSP
UniProt Q9BZ95: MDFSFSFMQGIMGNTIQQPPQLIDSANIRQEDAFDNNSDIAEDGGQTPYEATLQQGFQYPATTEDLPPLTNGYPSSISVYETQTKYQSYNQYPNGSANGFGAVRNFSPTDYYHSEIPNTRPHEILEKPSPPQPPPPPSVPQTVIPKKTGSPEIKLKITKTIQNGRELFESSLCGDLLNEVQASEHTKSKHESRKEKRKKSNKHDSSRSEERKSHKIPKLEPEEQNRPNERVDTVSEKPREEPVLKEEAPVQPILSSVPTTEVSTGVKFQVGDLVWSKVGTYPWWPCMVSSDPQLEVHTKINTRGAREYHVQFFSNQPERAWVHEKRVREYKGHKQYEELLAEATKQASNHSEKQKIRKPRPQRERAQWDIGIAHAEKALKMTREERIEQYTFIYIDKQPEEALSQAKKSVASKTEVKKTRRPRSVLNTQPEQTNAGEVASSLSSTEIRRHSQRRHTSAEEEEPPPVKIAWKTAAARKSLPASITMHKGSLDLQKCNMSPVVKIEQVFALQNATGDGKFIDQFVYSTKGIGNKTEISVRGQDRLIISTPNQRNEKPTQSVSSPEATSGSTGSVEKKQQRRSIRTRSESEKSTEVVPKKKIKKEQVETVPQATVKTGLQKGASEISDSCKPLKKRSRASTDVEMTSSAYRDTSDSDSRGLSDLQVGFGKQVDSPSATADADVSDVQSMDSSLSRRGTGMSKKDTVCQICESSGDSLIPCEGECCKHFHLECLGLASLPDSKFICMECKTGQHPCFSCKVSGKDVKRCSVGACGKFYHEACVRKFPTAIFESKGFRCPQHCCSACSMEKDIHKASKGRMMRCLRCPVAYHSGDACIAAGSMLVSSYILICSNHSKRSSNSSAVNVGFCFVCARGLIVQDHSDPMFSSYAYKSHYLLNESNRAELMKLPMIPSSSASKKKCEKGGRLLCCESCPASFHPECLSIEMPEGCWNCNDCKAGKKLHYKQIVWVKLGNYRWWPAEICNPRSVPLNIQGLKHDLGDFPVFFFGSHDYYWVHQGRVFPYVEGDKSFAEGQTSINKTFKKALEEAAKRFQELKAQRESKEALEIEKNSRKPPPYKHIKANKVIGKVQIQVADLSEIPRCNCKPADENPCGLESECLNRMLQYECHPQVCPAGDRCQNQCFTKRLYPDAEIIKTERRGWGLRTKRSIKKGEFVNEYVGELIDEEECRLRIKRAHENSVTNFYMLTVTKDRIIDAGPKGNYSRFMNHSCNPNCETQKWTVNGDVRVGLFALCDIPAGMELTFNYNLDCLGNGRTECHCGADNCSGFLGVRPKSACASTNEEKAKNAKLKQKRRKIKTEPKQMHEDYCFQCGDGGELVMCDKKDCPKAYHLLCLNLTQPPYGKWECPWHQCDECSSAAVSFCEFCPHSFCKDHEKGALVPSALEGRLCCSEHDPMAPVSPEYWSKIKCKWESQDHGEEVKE
UniProt P49757: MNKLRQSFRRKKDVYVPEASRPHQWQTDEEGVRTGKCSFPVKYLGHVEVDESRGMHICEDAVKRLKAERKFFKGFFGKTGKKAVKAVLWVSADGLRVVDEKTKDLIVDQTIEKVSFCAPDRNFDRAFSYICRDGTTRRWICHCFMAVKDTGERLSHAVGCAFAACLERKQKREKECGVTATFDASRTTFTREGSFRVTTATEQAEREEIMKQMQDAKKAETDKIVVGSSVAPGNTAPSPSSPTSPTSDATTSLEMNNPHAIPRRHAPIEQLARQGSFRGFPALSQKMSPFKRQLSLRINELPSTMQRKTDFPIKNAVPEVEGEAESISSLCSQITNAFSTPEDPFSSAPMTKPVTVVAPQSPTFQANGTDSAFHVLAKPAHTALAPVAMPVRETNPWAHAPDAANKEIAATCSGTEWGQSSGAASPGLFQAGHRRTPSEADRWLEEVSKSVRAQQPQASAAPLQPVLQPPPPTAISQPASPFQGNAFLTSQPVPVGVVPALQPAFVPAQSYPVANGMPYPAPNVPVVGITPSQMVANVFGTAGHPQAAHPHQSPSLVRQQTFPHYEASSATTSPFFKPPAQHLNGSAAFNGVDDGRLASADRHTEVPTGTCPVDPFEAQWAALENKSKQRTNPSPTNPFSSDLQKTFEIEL
UniProt Q96MY1: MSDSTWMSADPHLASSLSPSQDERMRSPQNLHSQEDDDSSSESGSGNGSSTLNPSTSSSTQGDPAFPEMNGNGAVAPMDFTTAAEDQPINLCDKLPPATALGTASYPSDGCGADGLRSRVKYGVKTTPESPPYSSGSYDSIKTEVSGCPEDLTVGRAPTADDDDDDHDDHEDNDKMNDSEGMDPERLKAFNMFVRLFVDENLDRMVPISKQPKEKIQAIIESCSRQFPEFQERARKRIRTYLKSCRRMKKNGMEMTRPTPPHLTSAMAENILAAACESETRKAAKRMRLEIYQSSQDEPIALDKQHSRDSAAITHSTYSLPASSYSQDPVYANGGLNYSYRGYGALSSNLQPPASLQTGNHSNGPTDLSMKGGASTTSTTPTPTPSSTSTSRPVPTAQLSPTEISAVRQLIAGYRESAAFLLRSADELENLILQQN
UniProt Q8WTW4: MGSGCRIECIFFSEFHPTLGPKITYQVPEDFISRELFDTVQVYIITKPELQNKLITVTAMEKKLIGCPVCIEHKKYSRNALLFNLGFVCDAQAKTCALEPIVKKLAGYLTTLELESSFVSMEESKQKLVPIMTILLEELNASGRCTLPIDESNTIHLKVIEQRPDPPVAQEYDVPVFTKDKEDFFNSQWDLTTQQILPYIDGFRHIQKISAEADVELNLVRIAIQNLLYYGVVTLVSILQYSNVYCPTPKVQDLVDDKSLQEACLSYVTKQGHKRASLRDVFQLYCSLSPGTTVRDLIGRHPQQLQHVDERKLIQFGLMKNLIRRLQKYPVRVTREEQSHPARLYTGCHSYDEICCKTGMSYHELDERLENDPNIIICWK
UniProt P24468: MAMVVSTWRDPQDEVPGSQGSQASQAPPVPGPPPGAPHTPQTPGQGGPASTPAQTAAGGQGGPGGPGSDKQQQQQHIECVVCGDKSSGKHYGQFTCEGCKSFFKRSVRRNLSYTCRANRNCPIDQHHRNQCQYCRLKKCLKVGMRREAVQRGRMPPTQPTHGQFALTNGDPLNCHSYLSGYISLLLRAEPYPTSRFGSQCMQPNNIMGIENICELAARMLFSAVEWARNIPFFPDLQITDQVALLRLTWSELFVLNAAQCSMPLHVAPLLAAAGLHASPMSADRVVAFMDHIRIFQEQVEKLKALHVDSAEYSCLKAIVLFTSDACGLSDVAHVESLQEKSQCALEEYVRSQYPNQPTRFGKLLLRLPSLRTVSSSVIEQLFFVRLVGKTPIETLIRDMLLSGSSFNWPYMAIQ
UniProt Q92686, whole entry, looked up: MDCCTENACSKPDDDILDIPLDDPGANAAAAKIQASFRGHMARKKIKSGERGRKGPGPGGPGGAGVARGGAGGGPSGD
UniProt O00746: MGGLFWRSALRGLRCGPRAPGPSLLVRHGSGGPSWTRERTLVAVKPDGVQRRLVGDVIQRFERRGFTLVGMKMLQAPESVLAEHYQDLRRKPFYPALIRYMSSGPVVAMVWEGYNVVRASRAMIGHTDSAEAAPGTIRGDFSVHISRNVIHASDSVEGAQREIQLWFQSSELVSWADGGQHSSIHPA
UniProt Q9NWW6: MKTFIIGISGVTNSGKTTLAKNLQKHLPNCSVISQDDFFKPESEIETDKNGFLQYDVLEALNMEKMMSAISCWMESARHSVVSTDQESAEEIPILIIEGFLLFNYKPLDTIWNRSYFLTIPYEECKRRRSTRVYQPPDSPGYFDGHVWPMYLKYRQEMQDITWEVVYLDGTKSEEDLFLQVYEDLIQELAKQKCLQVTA

[2] = compound: CNC(=O)C1=CC=CC=C1NC2=NC(=NC=C2Cl)NC3=C(C=C(C=C3)N4CCOCC4)OC
In short: as §1

[3] = compound: COC(=O)N[C@@H](C)CNc1nccc(-c2cn(C(C)C)nc2-c2cc(Cl)cc(NS(C)(=O)=O)c2F)n1 [encorafenib]
In short: as §1

[4] = compound: COC(=O)[C@H](CCSC)NC(=O)C1=C(C=C(C=C1)NC[C@H](CS)N)C2=CC=CC=C2
In short: as §1

[5] = compound: COc1cc(Nc2ncc3c(n2)-c2ccc(Cl)cc2C(c2c(F)cccc2OC)=NC3)ccc1C(=O)O [alisertib]
In short: as §1

[6] = compound: COc1cc2ncnc(Nc3ccc(F)c(Cl)c3)c2cc1OCCCN1CCOCC1 [gefitinib]
In short: as §1

[7] = compound: CN1CCN(CCOc2cc(OC3CCOCC3)c3c(Nc4c(Cl)ccc5c4OCO5)ncnc3c2)CC1 [saracatinib]
In short: as §1

[8] = compound: CN1CCN(c2nc(C3=C(c4c[nH]c5ccccc45)C(=O)NC3=O)c3ccccc3n2)CC1 [sotrastaurin]
In short: as §1

[9] = compound: CNc1nc(-c2ccc3c(N)n[nH]c3c2)cc(N2C[C@@H](C(=O)NC3CCCCC3)CC[C@H]2C)n1
In short: as §1

[10] = compound: CCCS(=O)(=O)Nc1ccc(F)c(C(=O)c2c[nH]c3ncc(Cl)cc23)c1F
In short: as §1

[11] = compound: CCN(CCCOc1ccc2c(Nc3cc(CC(=O)Nc4cccc(F)c4)[nH]n3)ncnc2c1)CCOP(=O)(O)O [barasertib]
In short: as §1

[12] = compound: CC[C@@H]1C(=O)N(C)c2cnc(Nc3ccc(C(=O)N[C@H]4CC[C@H](N5CCN(CC6CC6)CC5)CC4)cc3OC)nc2N1C(C)C [volasertib]
In short: as §1

[13] = compound: CCn1c(C(=O)N(C2CC2)C2CC2)cc2c3c(ncn3C)c(Nc3cc(C)n(C)n3)nc21
In short: as §1

[14] = compound: CCn1cc(-c2ccnc3[nH]c(-c4cccc(CN(C)C)c4)cc23)c(-c2ccc(NC(=O)N(C)C)cc2)n1
In short: as §1

[15] = compound: CN1CCC(CNc2ccc3ncc(-c4cccc(OC(F)(F)F)c4)n3n2)CC1
In short: as §1

[16] = compound: CN1CC[C@H](c2c(O)cc(O)c3c(=O)cc(-c4ccccc4Cl)oc23)[C@H](O)C1 [alvocidib]
In short: as §1

[17] = compound: CN1CCc2c(c3ccccc3n2Cc2ccc(C(=O)NO)cc2)C1 [Tubastatin A]
In short: as §1

[18] = compound: COc1cc2nc(-c3cc(F)ccc3O)nc(N[C@@H]3CNC[C@H]3C(C)(C)O)c2cc1OC
In short: as §1

[19] = compound: CCCS(=O)(=O)Nc1ccc(F)c(C(=O)c2c[nH]c3ncc(-c4ccc(Cl)cc4)cc23)c1F [vemurafenib]
In short: as §1

[20] = compound: CNC(=O)c1ccc(Nc2ncc(C(F)(F)F)c(NCc3nccnc3N(C)S(C)(=O)=O)n2)cc1 [defactinib]
In short: as §1

Measured: log2 fold change

NUDT5 (UniProt C9JYY9)
inactive: [1] 0.036 | [2] 0.026 | [3] 0.066 | [4] -0.029 | [5] -0.092 | [6] -0.075

NR1D1 (UniProt P20393)
inactive: [1] 0.089 | [3] -0.289 | [4] 0.014

NT5C2 (UniProt Q5JUV3)
inactive: [1] 0.096 | [7] 0.027 | [8] 0.078 | [9] 0.024 | [3] 0.021 | [4] -0.258

NUDT14 (UniProt O95848)
inactive: [10] 0.091 | [11] 0.008 | [12] -0.038 | [13] 0.079 | [14] -0.104 | [15] 0 | [7] 0.04 | [8] 0.072 | [16] 0.105 | [17] -0.153 | [2] -0.159 | [9] 0.006 | [18] 0.018

NTMT1 (UniProt S4R338)
inactive: [10] 0.043 | [12] -0.002 | [18] 0.045

2 consecutive entries from above:
NT5C2 (UniProt Q5JUV3)
inactive: [1] 0.096 | [7] 0.027 | [8] 0.078 | [9] 0.024 | [3] 0.021 | [4] -0.258

NUDT14 (UniProt O95848)
inactive: [10] 0.091 | [11] 0.008 | [12] -0.038 | [13] 0.079 | [14] -0.104 | [15] 0 | [7] 0.04 | [8] 0.072 | [16] 0.105 | [17] -0.153 | [2] -0.159 | [9] 0.006 | [18] 0.018

Next part.

NMNAT3 (UniProt Q96T66)
inactive: [11] -0.194

NOS3 (UniProt P29474)
inactive: [19] 0.107 | [2] 0.127 | [20] 0.089 | [5] -0.166 | [6] -0.146

NSD3 (UniProt Q9BZ95)
inactive: [11] -0.012 | [1] 0.067 | [13] -0.012 | [14] -0.126 | [15] 0.024 | [7] -0.054 | [8] -0.016 | [16] -0.044 | [17] -0.118 | [9] 0.068 | [3] 0.149 | [4] -0.135 | [5] -0.077 | [6] 0.092

NUMB isoform 2 (UniProt P49757)
inactive: [13] -0.146 | [7] -0.04 | [17] -0.112 | [9] 0.158 | [5] 0.092 | [6] -0.277

NSDHL (UniProt C9JDR0)
inactive: [10] 0.018 | [12] 0.135 | [5] -0.05 | [18] -0.132 | [6] -0.109

NOL4L (UniProt Q96MY1)
inactive: [10] 0.06 | [1] -0.051 | [12] -0.131 | [13] 0.003 | [14] 0.087 | [15] 0.065 | [7] 0.09 | [16] 0.068 | [17] -0.081 | [2] 0.026 | [9] -0.047 | [3] -0.066 | [4] 0.02 | [18] 0.044

NPRL2 (UniProt Q8WTW4)
inactive: [8] -0.132 | [5] -0.151 | [6] -0.047

NT5C (UniProt J3KSX6)
inactive: [10] 0.117 | [11] -0.079 | [12] 0.21 | [18] -0.199

NPLOC4 (UniProt I3L3I1)
inactive: [11] 0.125 | [1] 0.104 | [7] 0.152 | [8] -0.108 | [9] 0.799 | [3] 0.014 | [4] -0.143

NR2F2 (UniProt P24468)
inactive: [10] -0.081 | [11] 0.01 | [12] -0.146 | [13] -0.028 | [14] 0.005 | [15] -0.216 | [7] 0.014 | [8] 0.013 | [16] -0.053 | [17] -0.154 | [2] 0.056 | [9] -0.047 | [5] 0.072 | [18] 0.012 | [6] -0.077

NRGN (UniProt Q92686)
inactive: [11] 0.168 | [7] -0.245 | [8] 0.174 | [9] -0.07 | [5] -0.068 | [6] -0.069

NME4 (UniProt O00746)
inactive: [1] -0.029 | [13] -0.019 | [8] 0.069 | [17] -0.016 | [2] 0.036 | [3] 0.093 | [4] 0.125

NMRK1 (UniProt Q9NWW6)
inactive: [8] 0.091
